# Reference: the supplement of paper PMC3334620
# Over roughly 33,000 sequences, “E-score (-0.5 to 0.5)” has its median near -0.016; the highest 2% begin near 0.3. This is one part of the list.
# Target: T1, Yer184c (UniProt P39961)
# T1 sequence: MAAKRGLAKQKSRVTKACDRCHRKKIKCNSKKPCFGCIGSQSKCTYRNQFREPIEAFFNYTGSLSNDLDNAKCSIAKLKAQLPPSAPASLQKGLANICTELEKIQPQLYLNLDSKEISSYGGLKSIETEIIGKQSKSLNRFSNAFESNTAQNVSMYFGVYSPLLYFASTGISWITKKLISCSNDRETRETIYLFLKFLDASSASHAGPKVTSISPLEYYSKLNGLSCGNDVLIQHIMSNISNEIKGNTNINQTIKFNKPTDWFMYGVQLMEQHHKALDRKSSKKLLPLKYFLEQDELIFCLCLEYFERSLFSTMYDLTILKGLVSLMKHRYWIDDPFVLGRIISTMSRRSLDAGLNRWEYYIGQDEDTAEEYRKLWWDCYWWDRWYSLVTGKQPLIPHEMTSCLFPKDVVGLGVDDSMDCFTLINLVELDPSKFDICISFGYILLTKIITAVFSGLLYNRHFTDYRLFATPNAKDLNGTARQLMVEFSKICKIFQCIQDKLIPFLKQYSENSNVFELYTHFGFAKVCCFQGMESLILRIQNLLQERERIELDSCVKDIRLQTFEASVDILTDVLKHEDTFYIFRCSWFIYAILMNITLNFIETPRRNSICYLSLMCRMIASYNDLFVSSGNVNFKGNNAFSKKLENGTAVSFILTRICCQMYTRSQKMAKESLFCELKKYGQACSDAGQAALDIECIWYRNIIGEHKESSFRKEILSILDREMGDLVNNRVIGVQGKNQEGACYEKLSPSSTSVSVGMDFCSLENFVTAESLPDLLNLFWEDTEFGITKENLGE
# Assay: PBM E-score (8-mer binding enrichment) (E-score (-0.5 to 0.5)); higher = stronger / more preferred TF binding
# Conditions: protein concentration: 100 nM; construct: GST-full length
# Method: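 Universal 'all 10-mer' protein binding microarrays (Agilent AMADID 015681) probed with GST-tagged S. cerevisiae TFs (full-length or DBD) made by in vitro transcription/translation (PURExpress), about 100-200 nM. Bound TF was detected with fluorescent anti-GST. Each ungapped 8-mer (which stands for itself and its reverse complement) is scored by the PBM enrichment score (E-score), a modified Wilcoxon-Mann-Whitney statistic from -0.5 to +0.5, computed with the Universal PBM Analysis Suite. Scale: above 0.35 generally sequence-specific binding.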
row,Sequence,PBM E-score
1,AAAGAACA,0.215
2,CAGATTAG,-0.152
3,CGGGAAAA,0.244
4,CCTATAAA,-0.134
5,GCCGGCGA,0.311
6,GTGTTCGA,0.035
7,CGTTTTCA,0.159
8,CCGCCCCG,0.289
9,ATAAAATA,0.157
10,AAACGTCC,-0.0995
11,GATGTCGC,-0.173
12,GATTGGGA,-0.133
13,CTCATACC,0.0516
14,CGCTAGTA,0.148
15,CTGGTGGC,-0.183
16,GCTTCACA,-0.114
17,AATCTCAG,-0.253
18,ACTTCTTG,-0.129
19,AGTCGCAT,-0.0743
20,ATTATGAA,0.202
21,GCGAGCAC,-0.213
22,GCTCAAAC,0.19

row,Sequence,PBM E-score
1,AGGTGGAC,-0.288
2,GTTCCGCA,0.268
3,GAACGGTA,0.0832
4,CCAGTACA,-0.119
5,ATCTTGAC,-0.0748
6,AGGGGTTC,-0.305
7,AATTGGCA,-0.0934
8,GGTCCAGA,-0.126
9,CGTGAATC,0.0513
10,AAGTAGAT,0.0939
11,ACGATGCG,-0.129
12,CGCTCACG,0.0198
13,AACGTACG,-0.119
14,ACTGCCTG,-0.0789
15,ACGTGAAT,-0.0871
16,CGTCTACC,0.0232
17,GCGGCTAC,0.0898
18,CCGCGGCG,0.326
19,CCAGTGAA,-0.0934
20,GACGCCTA,-0.199
21,TCCCCAAA,-0.12
22,CAAAAGCC,0.0972

row,Sequence,PBM E-score
1,CGATTGTC,0.0877
2,CTGATCGA,-0.172
3,AATACAGC,0.0754
4,ACTTCATC,0.0593
5,AGGTCGTG,-0.192
6,GAAGGTAC,-0.106
7,CAGCGCAG,-0.0406
8,CACGCTGA,-0.128
9,CAAGACCC,-0.225
10,AAGACTCG,-0.00603
11,ATTCTTCG,0.123
12,AGTTCACC,0.172
13,GAGGCCAC,-0.138
14,CGTGATAA,0.14
15,CCTCACAG,-0.0554
16,GTTTGGTA,0.139
17,AAAGCCTT,-0.135
18,CTGCATAA,0.11
19,CAATGATA,0.0278
20,AGGCCACA,-0.197
21,AGGTAATA,0.136
22,GTGGCCCA,-0.182

# Exported with bars between the fields: part of the list above.
row | Sequence | PBM E-score
10 | AAGACTCG | -0.00603
11 | ATTCTTCG | 0.123
12 | AGTTCACC | 0.172

# Remaining list, next part

row,Sequence,PBM E-score
1,ATCCCTCG,-0.0408
2,AGTGTGCA,-0.0513
3,CAAGACGA,-0.0111
4,ACGTTGAT,0.0751
5,CTGGCGGC,0.0137
6,GTAGCGTA,-0.205
7,ATTCGATG,-0.0297
8,ATCGCTCA,-0.165
9,CATAGGTA,-0.151
10,ATTTGAGC,0.0535
11,ACAGCCCA,-0.0828
12,CCGACCGG,0.241
13,CGATGCAA,-0.00579
14,ATGACATA,0.00811
15,AAGGCTGA,-0.125
16,AAATTGTG,-0.172
17,AAGAACAC,0.165
18,ACCGAACT,0.306
19,CTGGTTTC,0.119
20,AGCACAAC,0.161
21,GGTCGTGA,-0.142
22,ATACTTTG,0.138

row,Sequence,PBM E-score
1,GAGAACCC,-0.163
2,TCAATGGA,-0.0551
3,CTCTTATA,0.145
4,AGATGCAG,-0.0823
5,AATTATCT,0.184
6,CAGTGCAC,-0.0888
7,ACCTGACC,-0.256
8,AAAAACAC,0.0944
9,GACCCCAC,-0.0899
10,ACCTTGCT,-0.104
11,ATATGGAT,-0.0237
12,TAGCGGAA,0.177
13,ACAGCTAG,-0.233
14,ATCCACTG,-0.143
15,CGGCACGC,0.106
16,GGGGATCA,-0.321
17,ACTTCGGG,0.0741
18,CTGTCTTC,0.0575
19,CAAAGCAC,-0.00373
20,AAAGTCCC,-0.107
21,GATAGAGC,0.00418
